PubChem BioAssay AID1508597 – Cure First – 2020
Screen: 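Survival screen with siRNA in ovarian cancer cells derived from patients, with or without rucaparib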 (primary screen). Cell system: human ovarian carcinoma lines grown from tumours: OCI-P5x (papillary serous) and OCI-C5x (clear cell). Reagent: siRNA pool against human genes, 1.25 pmol siRNA per well. Timing: 72 h or 96 h, depending on the cell culture. Conditions: rucaparib 20 µM (about IC30) or vehicle, present until read-out. Rucaparib or vehicle: Vehicle. Cell line: OCI-C5x (clear cell). Read-out: 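Luminescent ATP-based viability assay read 72 or 96 h after transfection, depending on culture, given as normalised percent viability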. Direction: viability, normalised: higher = more viable cells remaining. Call rule: 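a well counts as a hit if its normalised viability is under 80 percent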. Calls: active = viability under 80%; inactive = viability 80% or more.
This is a random part of the about 2,100 reagents, under one of the conditions tested. 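Calls flag viability under 80% in either arm, not effects specific to rucaparib; the reference for percent is not stated.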 Some reagents were tested in more than one well and are listed for each. No sequences are given here. Not stated in the record: the 100% reference.

Target gene	technical replicate	viability, normalised (%)	Call
ZNF623	1	68.4	active
ZNF623	2	56.4	active
ZNF623	3	58.1	active
SMN2	1	43.8	active
SMN2	2	31.7	active
SMN2	3	46.8	active
BMPR1A	1	53.3	active
BMPR1A	1	82.9	inactive
BMPR1A	2	70.5	active
BMPR1A	2	37.9	active
BMPR1A	3	45.2	active
BMPR1A	3	46.4	active
MEN1	1	53.1	active
MEN1	2	51.2	active
MEN1	3	50.1	active
DCP2	1	30.8	active
DCP2	2	47.3	active
DCP2	3	51.4	active
PLCG1	1	50.9	active
PLCG1	2	57.2	active
PLCG1	3	58.8	active
PIM2	1	123	inactive
PIM2	2	64.6	active
PIM2	3	56.5	active
PDE8A	1	51.3	active
PDE8A	2	77.8	active
PDE8A	3	71.9	active
ITIH4	1	48.7	active
ITIH4	2	38.6	active
ITIH4	3	51.8	active

Next part, starting with the last 4 of the part before.
Target gene	technical replicate	viability, normalised (%)	Call
PDE8A	3	71.9	active
ITIH4	1	48.7	active
ITIH4	2	38.6	active
ITIH4	3	51.8	active
SETMAR	1	58.4	active
SETMAR	1	66.3	active
SETMAR	2	63.5	active
SETMAR	2	37.5	active
SETMAR	3	56.7	active
SETMAR	3	41.2	active
PAK5	1	54.3	active
PAK5	2	45.9	active
PAK5	3	39.3	active
AMELX	1	38.9	active
AMELX	2	34.6	active
AMELX	3	37.5	active
EPHA6	1	67.6	active
EPHA6	2	73.6	active
EPHA6	3	52.9	active
ALDH18A1	1	55.5	active
ALDH18A1	2	50.3	active
ALDH18A1	3	56.2	active
CDC5L	1	20.7	active
CDC5L	2	30.5	active
CDC5L	3	22.2	active
RNF8	1	80.8	inactive
RNF8	1	33.3	active
RNF8	2	41.1	active
RNF8	2	31.2	active
RNF8	3	39	active
RNF8	3	44.4	active
